In all, about 52,000 sequences went through this assay and about 210 (0.4%) were called active.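 Rule for the calls: active = gene whose silencing raises cell survival under the drug, median off-target-corrected z-score across its silencing RNAs 2 or more; inactive = the rest.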 Some of the results follow.

The nature of the experiment: Resistance to Poly (ADP-Ribose) Polymerase inhibitor: Gene Identification via Genome-wide siRNA Screen. Particulars: mouse BRCA2 R2336H ES cells, olaparib, CellTiter-Glo viability; hits give high values. An outline of the steps:
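Mouse BRCA2 R2336H ES cells were reverse-transfected with siRNA (20 nM final), treated at 48 h with 500 nM olaparib, and read by CellTiter-Glo after 72 h. Scores: MAD-based z per siRNA, median per gene, seed off-target correction.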
Regarding GGCUUUACUUCUUGCUGUGTT against Olfr1412, the z-score is inactive: -1.06. The result for “GGAAUAUAUCUCCAAACAGTT against 1700008F21Rik” reads inactive: -0.104. The result for “GCUACAAACAACAAGUGACTT against 2210408I21Rik” reads inactive: -0.564; that for CCAAGAAAAGUCCAGAAGCTT against Rorb, inactive: 0.68. To GGACAUCAUCCAGGAAAACTT against Bcar3 belongs inactive: -1.98; to GGGCAAAAGUUUAGAAAUCTT against AI467503, inactive: 0.482; to “GCUUCUGAUUGAGAGUUCATT against D830044D21Rik”, inactive: 0.542. Regarding GGAUAUCAUGGACACUCAUTT against Apg16l, the z-score is inactive: -2.53. Turning to GGUGCUGACUGCUUUUGGATT against Hbb-y, the z-score is inactive: -0.265. As to “GGAAUCAUCUUUGUGGAGATT against 0610006K04Rik”, the z-score is inactive: 0.623. To GCCCUAUCUACCAUAACACTT against Dok3 belongs inactive: -1.43; to GGAAGAAAAGGCUUCUCUUTT against Ube3c, inactive: -0.853; to GCUGUGAUCAGGACGAGAATT against Epim, inactive: -0.712. On to CCUAUUAUACUGAUCUCGGTT against LOC432436, for which the z-score was inactive: 0.947.

Turning to GCCAAAUCAUGGGUCUGGUTT against Npas3, the z-score is inactive: 0.238. To GGAAAAAUGACUGAUCUCUTT against Unc5c belongs inactive: -0.149; to GGCAUUCGAAGGGUCUACATT against Kcna7, inactive: -2.93.

As for GGUUAUCCCAACUACCAGCTT against Timm17b, the z-score was inactive: 0.448.

“GGGCCUUAAAUUCCUAACCTT against 9530002K18Rik”: the z-score is inactive: 0.892. In the case of “GGCUCCUAAAAAGUUUGCATT against 5330401P04Rik”, the z-score is inactive: -0.356.

On to GCUUCAGAAGCUUAAUAGCTT against Cited1, for which the z-score is inactive: 0.867. The result for GGCUUAGAGAAACUCUAGATT against Btbd14b reads inactive: -0.27; that for GGGACCAGAUCAAGACACUTT against Apxl, inactive: 0.899; that for GCUCAAAUGUUCUAAAAGCTT against Acmsd, inactive: 0.495.

As for “GGACAGUUGACCUAGCAUATT against 9330155M09Rik”, the z-score was inactive: 0.421.

With GCUAGACCGAAGAAUCCUGTT against Spatc1, the z-score is inactive: -0.0515. As for GCAAGCAAGGAAAAAGCUATT against Glis3, the z-score was inactive: -0.53.

GGACUACGCCGACUUUGUCTT against Cog2: the z-score is inactive: 1.34. In the case of GACUGCUGUUUAGGAAUCGTT against Trip3, the z-score is inactive: 0.166. The result for GGUGGUCCAGACCAAGUACTT against Pfdn5 reads inactive: -1.39.

With CCAAGCGAAUGCUGGACAUTT against Cox4i1, the z-score was inactive: -0.312. In the case of GCUACAAGUACUGGUUUCUTT against Pcnxl3, the z-score was inactive: -0.326. The result for GCAAAUGAUACAGUGGAUUTT against Catns reads inactive: 1.35; that for GGCAUUCCCAGUCGUAAAGTT against Kctd3, inactive: 0.758; that for GGAGCCGACUUCUUAUUCGTT against Mastl, inactive: 0.572. Turning to GGUACUAAGCACAAGACAATT against Zfp385, the z-score is inactive: 0.16. As to CCUUCUACCUACUUAUUGGTT against Tomm70a, the z-score is inactive: 1.18. On to GGAUGGUGAUUUGUUUCCUTT against Morf4l2, for which the z-score was inactive: 0.157. With GGACAGCUACAGGAAAAUGTT against Tjp1, the z-score was inactive: -0.488. The result for GCUAGAGCUCACCAAAUAATT against BC030396 reads inactive: -2.48; that for GGAAGGUGCUAAAAAUAUATT against Pdhx, inactive: 0.573. To “GGGUACAAUAUCCUUAAGUTT against D430033A06Rik” belongs inactive: -0.51; to “GGAGAGAGGACAACUUCUCTT against A530065E19Rik”, inactive: 0.329. For the sequence GCCACGAAAAGAAGAGAAUTT against Vpreb2, the z-score was inactive: 0.187. For the sequence GGAAAAAACCACGAUUGAGTT against Pecam1, the z-score was inactive: 2.01. The result for GGAUGGCUAUCUUGUAAUUTT against AF397014 reads inactive: -0.555; that for GGUAUUCGUUUCAUCUACATT against Hnrph1, inactive: 1.12; that for GGAAAUCAGAUUCCUUAAATT against AW061290, inactive: 0.311. The result for GGCUUUGCUUUUUCUGUAUTT against Ppif reads inactive: 0.935; that for “CCAAUUACGAGACUCUCAUTT against A730012O14Rik”, inactive: -0.329; that for GCUGAGAGAAAGGUUCACATT against Tube1, inactive: -1.3.

On to GGCUCAGAAACUAUUGAUATT against Rpgr, for which the z-score is inactive: 1.09. To GGAAACAAAAGGAUUUCUGTT against Fbxl13 belongs inactive: -0.0834; to GCUCAGAUGUAUAGACUCATT against Ap2a2, inactive: -1.03; to CGCAUUAGAGAGAUGAACATT against Centb2, inactive: -0.277.

For “GGAUGGAUUGCUGGUUACATT against E030013G06Rik”, the z-score was inactive: -1.41. The result for “GGGAAGUGGGAUUCCUAAGTT against 2810453I06Rik” reads inactive: 0.185; that for GGAGCUGAUCUUUUCAGUGTT against Slc35b3, inactive: -0.679; that for GGGCAACAUUUUGGAUUAUTT against Naglu, inactive: 0.767. The result for GGUGUGCUCUGUAAAUCAUTT against Trappc2 reads inactive: 0.553; that for GGCUUUUGAGAAUUCAUUCTT against Kcna5, inactive: -0.525. The result for “GGCUUUAACAUCAAAGCAATT against 4930583H14Rik” reads inactive: 0.749; that for CCUUUCUAACUACUCUCACTT against Olfr149, inactive: -0.919. Turning to GGUGGUGUCAAAAUGAAGCTT against 3-Sep, the z-score was inactive: -0.0105.

Turning to “GCCCUCAUCAGAAGAAACUTT against 4930503B16Rik”, the z-score is inactive: -1.41. For the sequence “GCUAGUCAUGCUACGGAAUTT against 9130023F12Rik”, the z-score was inactive: -1.82. To GCCCAUCAACCUAAUUUCATT against Tarbp2 belongs inactive: -1.42.

For GCUUGACCUUUUUACUCCUTT against Siglecl1, the z-score is inactive: 2.08. To GGCUCGAAAGCGGUUCUUATT against Amfr belongs inactive: -2.1; to GGAACACCAUGAAGAAGACTT against Gabarap, inactive: 0.172; to GGAUCCACAAGCGACUCAUTT against Rps20, inactive: -3.28. For the sequence CCCAACUUAAAAGUACGUUTT against Hdac5, the z-score was inactive: 0.071. The result for GGUGGAAUAAUGGACAAGATT against Blnk reads inactive: -1.93. The result for GCGAGCUAUUCUUCCUUGUTT against Eif4a1 reads inactive: -1.37. The result for “GGAAGAUGUGAUUUAUGACTT against 2810441C07Rik” reads inactive: 0.0636; that for GGAUAAGAAGCGAUUUGAATT against Rcn2, inactive: -0.793. In the case of GGAACUCUCCUUGCAUCAGTT against Lrrc6, the z-score was inactive: 1.15. To “GCGUGGACAAACUCUAUGATT against A930008A22Rik” belongs inactive: -0.102; to GGACCGCCUUCAACAACAATT against Gtrgeo22, inactive: 0.623.

As for GCCACCACCAUAAAUAUAUTT against Thsd2, the z-score is inactive: 0.0662. For the sequence GCCUUUACACUAAUGAUAATT against Cilp, the z-score was inactive: 0.581. The result for “GCUGAACAAUCGCUCAGUATT against 5830445C04Rik” reads inactive: -1.26. The result for GCUGAAGGCGACAAUGGAUTT against Ak2 reads inactive: -0.828; that for GCUCUCUCCAUAUUAGUGGTT against Nkg7, inactive: -0.62. Turning to GGACCAUUCAUUUCUGGAGTT against Riok3, the z-score is inactive: 1.36. Consider GCAAUAGGUUUAAAGACAUTT against Tgm5, for which the z-score is inactive: 0.977. As to CCGACGAUGGCACAUUACATT against Ranbp3, the z-score is inactive: -2.19. Turning to GCCAAGAGCGAAAUGAGUGTT against Mcf2l, the z-score is inactive: 0.218. As for GGCUCAUCUGUCUAAAAUUTT against Spag1, the z-score is inactive: -1.18. The result for GGAAGGAAACUGAUUGAGGTT against Slc30a7 reads inactive: 3.62; that for GGAAGAGAAUAACUCAUCATT against Atp5s, inactive: -0.00542.

As for GGGAUCAAUGGCUACCUGUTT against Slc7a10, the z-score was inactive: 0.058.

On to CAUGGAGGUCCUCAGAGACTT against Prb1, for which the z-score was inactive: -1.32. With CCUCCUAUCGGCGAAGAAATT against Olfr282, the z-score is inactive: -1.23. The result for GGGAAAUUUGGUGGCUACATT against Col14a1 reads inactive: -1.84; that for GGUCAAUGAAGAUGAACUGTT against Fxyd2, inactive: 0.287.

For the sequence GGUUGUCUGGAAUUUCCAUTT against Immp2l, the z-score was inactive: -0.946. The result for CCAUCCCAUUAUUAUGUCCTT against Eif2c1 reads inactive: -0.685; that for CCCACGGAAAACAAUAUUUTT against Cpeb4, inactive: 0.195. To GCCUAUAAGAACUUUUUCATT against Tnc belongs inactive: 1.02; to CCCUAAGCUGAAACGAAAUTT against Tas2r119, inactive: -0.0402. For GGAAAGUCCUGGGAAAUACTT against Olfr697, the z-score was inactive: 0.411.

With GAGAAUCCCUUCGAGUACGTT against Fxyd2, the z-score is inactive: 0.437. With GCAGAUGUACUCUAAGGGUTT against Adam23, the z-score was inactive: 2.5.

The values above are taken from PubChem BioAssay AID1347423 (Functional Genomics Laboratory (NCATS/FGL), 2020).
